Results from PMC8335659.
Results are given in words; binding and its absence hold for the method and conditions named. Binding seen in cells or lysates may run through a third protein. Some entries that bind do so weakly or less than the wild type.

Amino acid sequences for entries named in this document (tags omitted). A change or cut given only in a name is not applied to a line headed by its entry. Chains listed by the source or under a name are the forms on record and can include a tag or linker.
GluA1^AADD (P23818, form named): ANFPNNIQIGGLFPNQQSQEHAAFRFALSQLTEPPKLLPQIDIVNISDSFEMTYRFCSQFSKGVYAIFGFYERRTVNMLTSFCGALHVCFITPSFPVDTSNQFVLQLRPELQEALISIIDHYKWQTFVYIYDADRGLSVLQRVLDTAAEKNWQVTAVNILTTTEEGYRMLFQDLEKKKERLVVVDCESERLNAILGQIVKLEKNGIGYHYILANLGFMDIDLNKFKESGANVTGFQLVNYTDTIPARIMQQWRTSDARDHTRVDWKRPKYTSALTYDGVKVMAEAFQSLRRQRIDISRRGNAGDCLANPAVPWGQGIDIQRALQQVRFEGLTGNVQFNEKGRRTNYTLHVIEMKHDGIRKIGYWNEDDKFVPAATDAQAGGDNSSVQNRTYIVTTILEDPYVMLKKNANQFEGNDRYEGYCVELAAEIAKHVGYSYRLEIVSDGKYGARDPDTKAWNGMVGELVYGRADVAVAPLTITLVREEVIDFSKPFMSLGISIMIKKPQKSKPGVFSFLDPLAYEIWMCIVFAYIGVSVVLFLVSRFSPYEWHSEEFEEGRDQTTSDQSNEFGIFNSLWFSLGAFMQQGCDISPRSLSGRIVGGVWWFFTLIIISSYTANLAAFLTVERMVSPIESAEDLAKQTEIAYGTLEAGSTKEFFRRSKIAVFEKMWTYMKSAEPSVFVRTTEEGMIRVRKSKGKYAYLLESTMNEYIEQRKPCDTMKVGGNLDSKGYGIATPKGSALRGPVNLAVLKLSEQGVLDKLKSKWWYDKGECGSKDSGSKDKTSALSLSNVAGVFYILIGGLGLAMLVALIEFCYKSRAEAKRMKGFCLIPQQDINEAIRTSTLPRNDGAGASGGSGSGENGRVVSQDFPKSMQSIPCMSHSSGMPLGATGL
GluA1^AAAA (P23818, form named): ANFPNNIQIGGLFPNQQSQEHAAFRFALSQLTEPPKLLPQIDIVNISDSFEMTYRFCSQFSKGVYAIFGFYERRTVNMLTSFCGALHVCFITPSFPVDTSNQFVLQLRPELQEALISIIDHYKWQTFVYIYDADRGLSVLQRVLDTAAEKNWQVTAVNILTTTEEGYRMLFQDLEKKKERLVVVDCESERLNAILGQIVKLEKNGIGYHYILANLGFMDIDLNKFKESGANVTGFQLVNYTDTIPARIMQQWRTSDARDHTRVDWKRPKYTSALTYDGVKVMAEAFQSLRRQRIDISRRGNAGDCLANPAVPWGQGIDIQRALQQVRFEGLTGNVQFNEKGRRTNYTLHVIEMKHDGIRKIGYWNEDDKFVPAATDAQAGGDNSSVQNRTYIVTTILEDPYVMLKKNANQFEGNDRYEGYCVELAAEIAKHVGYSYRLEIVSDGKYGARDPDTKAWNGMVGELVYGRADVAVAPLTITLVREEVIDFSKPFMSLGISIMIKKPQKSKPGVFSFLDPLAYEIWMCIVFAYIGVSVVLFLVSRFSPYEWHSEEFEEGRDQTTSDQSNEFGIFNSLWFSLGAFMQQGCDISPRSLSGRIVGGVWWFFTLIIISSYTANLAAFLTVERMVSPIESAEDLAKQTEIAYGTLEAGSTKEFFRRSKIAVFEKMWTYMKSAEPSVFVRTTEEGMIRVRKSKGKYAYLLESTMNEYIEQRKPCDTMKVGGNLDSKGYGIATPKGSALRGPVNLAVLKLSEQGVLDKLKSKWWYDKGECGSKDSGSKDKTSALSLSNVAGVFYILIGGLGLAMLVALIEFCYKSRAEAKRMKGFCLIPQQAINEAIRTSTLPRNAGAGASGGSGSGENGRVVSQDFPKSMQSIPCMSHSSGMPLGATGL
GluA1^DDDD (P23818, form named): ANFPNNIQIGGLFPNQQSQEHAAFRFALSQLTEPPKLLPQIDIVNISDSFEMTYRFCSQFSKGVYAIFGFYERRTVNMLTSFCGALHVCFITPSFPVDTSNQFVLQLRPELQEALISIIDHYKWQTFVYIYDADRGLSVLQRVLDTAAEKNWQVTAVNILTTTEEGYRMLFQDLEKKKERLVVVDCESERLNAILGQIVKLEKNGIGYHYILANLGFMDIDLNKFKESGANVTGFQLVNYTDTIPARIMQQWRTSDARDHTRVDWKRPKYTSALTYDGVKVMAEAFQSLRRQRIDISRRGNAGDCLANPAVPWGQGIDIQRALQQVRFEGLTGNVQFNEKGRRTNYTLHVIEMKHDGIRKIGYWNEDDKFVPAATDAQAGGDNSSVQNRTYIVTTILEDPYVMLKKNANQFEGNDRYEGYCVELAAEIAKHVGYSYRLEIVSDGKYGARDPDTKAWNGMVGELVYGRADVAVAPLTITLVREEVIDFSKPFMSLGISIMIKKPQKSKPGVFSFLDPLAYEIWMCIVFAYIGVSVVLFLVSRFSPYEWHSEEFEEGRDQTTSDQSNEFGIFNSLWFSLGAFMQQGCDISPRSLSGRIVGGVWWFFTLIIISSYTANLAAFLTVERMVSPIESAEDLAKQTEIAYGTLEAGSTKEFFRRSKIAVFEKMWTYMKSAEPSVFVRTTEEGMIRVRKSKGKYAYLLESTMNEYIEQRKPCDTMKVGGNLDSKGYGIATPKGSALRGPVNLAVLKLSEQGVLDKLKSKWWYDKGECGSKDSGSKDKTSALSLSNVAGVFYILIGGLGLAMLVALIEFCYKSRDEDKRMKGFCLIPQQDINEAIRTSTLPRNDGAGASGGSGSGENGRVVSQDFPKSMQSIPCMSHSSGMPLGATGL
GluA1^DDAA (P23818, form named): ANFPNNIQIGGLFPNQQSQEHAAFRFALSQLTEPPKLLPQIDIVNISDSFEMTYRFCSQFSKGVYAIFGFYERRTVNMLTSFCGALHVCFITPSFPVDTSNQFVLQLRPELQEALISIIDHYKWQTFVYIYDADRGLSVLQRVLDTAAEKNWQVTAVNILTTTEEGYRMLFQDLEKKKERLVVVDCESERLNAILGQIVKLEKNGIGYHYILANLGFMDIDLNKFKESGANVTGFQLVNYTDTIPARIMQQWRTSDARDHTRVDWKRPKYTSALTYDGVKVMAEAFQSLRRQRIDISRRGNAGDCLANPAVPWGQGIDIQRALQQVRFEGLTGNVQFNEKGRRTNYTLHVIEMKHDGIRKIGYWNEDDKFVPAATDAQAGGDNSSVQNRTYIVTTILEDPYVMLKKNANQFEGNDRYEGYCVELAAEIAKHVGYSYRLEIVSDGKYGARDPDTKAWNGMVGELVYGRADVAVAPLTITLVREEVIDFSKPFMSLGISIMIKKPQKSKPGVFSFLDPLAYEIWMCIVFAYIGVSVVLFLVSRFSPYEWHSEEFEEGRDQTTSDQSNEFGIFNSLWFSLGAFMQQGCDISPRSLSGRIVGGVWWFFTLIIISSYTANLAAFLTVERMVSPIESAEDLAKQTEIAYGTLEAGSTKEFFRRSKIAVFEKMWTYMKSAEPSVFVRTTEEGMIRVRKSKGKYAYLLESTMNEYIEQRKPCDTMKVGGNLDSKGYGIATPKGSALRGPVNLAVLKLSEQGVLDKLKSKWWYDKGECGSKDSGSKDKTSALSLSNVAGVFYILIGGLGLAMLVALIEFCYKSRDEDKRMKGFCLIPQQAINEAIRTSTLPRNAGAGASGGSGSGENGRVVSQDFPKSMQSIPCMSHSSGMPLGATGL

What was measured:
Assay in all cases: co-IP; lysates of HEK293 cells co-expressing STG, a GluA1 mutant and FLAG-tagged μ2 or μ3; immunoprecipitated with anti-GluA1 and protein G agarose, 4 °C; TNE buffer (50 mM NaCl, 10% NP-40, 20 mM EDTA, 0.1% SDS, 50 mM Tris HCl, pH 8.0); blots with anti-FLAG, anti-GluA1, anti-stargazin
GluA1^AADD (mouse) = GluA1^AADD (mouse) (UniProt P23818)
GluA1^AAAA (mouse) = GluA1^AAAA (mouse) (UniProt P23818)
GluA1^DDDD (mouse) = GluA1^DDDD (mouse) (UniProt P23818)
GluA1^DDAA (mouse) = GluA1^DDAA (mouse) (UniProt P23818)

binding (GluA1^AADD (mouse)): binds | binding (GluA1^AAAA (mouse)): binds | binding (GluA1^DDDD (mouse)): binds | binding (GluA1^DDAA (mouse)): binds
B1: stargazin (protein, UniProt O88602 1-323)
chain: MGLFDRGVQMLLTTVGAFAAFSLMTIAVGTDYWLYSRGVCKTKSVSENETSKKNEEVMTHSGLWRTCCLEGNFKGLCKQIDHFPEDADYEADTAEYFLRAVRASSIFPILSVILLFMGGLCIAASEFYKTRHNIILSAGIFFVSAGLSNIIGIIVYISANAGDPSKSDSKKNSYSYGWSFYFGALSFIIAEMVGVLAVHMFIDRHKQLRATARATDYLQASAITRIPSYRYRYQRRSRSSSRSTEPSHSRDASPVGVKGFNTLPSTEISMYTLSRDPLKAATTPTATYNSDRDNSFLQVHNCIQKDSKDSLHANTANRRTTPV
